Results published in PubChem BioAssay AID504847 (National Center for Advancing Translational Sciences (NCATS), 2011).
In all, about 400,000 compounds went through this assay and about 3,700 (0.93%) were called active. The shares of active, inactive and inconclusive entries below differ from those in the screen. The call rests on the fitted dose curve; in most records, active means well fitted inhibition curve with a large enough effect; inconclusive means small, poorly fitted or top-dose-only effect, or another doubt; inactive means no such curve, though single readings can be large or run the other way. Potencies of inconclusive entries are doubtful fits and often do not repeat.

Protein sequences, listed by entry. Tags and fused reporters are not part of them.
UniProt P11473, whole entry, looked up: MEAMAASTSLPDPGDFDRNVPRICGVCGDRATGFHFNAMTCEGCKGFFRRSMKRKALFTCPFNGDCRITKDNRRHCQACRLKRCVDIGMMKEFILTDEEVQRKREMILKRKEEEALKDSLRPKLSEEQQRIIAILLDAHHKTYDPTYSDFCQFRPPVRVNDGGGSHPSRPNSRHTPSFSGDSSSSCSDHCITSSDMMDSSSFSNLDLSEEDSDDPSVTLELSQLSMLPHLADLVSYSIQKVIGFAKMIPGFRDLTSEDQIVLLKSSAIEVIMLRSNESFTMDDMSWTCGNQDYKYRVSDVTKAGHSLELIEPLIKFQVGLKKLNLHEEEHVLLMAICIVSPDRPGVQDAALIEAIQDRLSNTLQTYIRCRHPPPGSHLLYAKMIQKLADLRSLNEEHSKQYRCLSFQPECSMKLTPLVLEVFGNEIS

biological target: Vitamin D3 receptor (Homo sapiens) (UniProt P11473); test: Inhibitors of the vitamin D receptor (VDR): qHTS; details: VDR-SRC2-3 peptide fluorescence polarization, 2 h; max response, negative = inhibition: hits give low values
How it was run: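 Measured by FP: displacement of SRC2-3 coactivator peptide from VDR by library compounds, following a two-hour ambient incubation.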
On the % scale 0 is the no-effect control and ±100 the full control effect; potency means the concentration at half of the fitted maximal effect.

For `C=CCOc1cccc(C(=O)/C=C2/C(=O)Nc3ccccc32)c1`, which Potency is on record?
Its Potency is inconclusive: 31.6 µM [inhibitor, full curve].

`CCOC(=O)c1c(NC(=O)COc2ccc(Cl)cc2C)sc2c1CCCCC2` was tested. Which Potency did it give?
Its Potency is inconclusive: 89.1 µM [inhibitor, single point].

With `Cc1ccc(SCC(=O)NC2CCS(=O)(=O)C2)cc1C` (centres undefined) as the compound, how does the max response, negative = inhibition read?
Its max response, negative = inhibition is inactive: -11.3%.

For `COc1ccc(/C(O)=C2/C(=O)C(=O)N(CCN3CCNCC3)C2c2cccc([N+](=O)[O-])c2)cc1` (centres undefined), which Potency is on record?
The Potency was inconclusive: 79.4 µM [inhibitor, single point].

How did the Potency turn out when `Cc1ccccc1NC(=O)CSc1nnc(-c2ccco2)n1N` was run?
The Potency was inconclusive: 79.4 µM [inhibitor, single point].

For `Cc1cccc(NS(=O)(=O)c2ccc3c(c2)CC(C)N3C(=O)C2CCC2)c1C` (centres undefined), which max response, negative = inhibition is on record?
Its max response, negative = inhibition is inactive: 6.45%.

For `COc1ccc(CN2CCn3nc(C(=O)NC(C)C)cc3C2=O)cc1`, which Potency is on record?
The Potency was inconclusive: 10 µM [inhibitor, partial curve].

`Cc1ccc(-c2nn3c(C)nnc3s2)cc1NC(=O)c1ccc(OC(C)C)cc1` was tested. Which max response, negative = inhibition did it give?
The max response, negative = inhibition was inactive: -25.2%.

`S=c1[nH]nc(COc2ccccc2)n1/N=C/c1ccncc1` was tested. Which max response, negative = inhibition did it give?
The max response, negative = inhibition was inactive: 4.18%.

With `O=C(NCc1cccnc1)c1cnc2n(c1=O)CCS2` as the compound, how does the max response, negative = inhibition read?
The max response, negative = inhibition was inactive: 11.9%.

`O=C1CC(c2nc(-c3ccccc3)no2)CN1c1ccccc1` (centres undefined) was tested. Which max response, negative = inhibition did it give?
The max response, negative = inhibition was inactive: 8.59%.

For `CCc1nc2ccc(C(=O)NCc3cc(OC)ccc3OC)cc2nc1CC`, which max response, negative = inhibition is on record?
The max response, negative = inhibition was inactive: 21%.

With `CCN(CC(=O)Nc1ccc(OC)cc1)C(=O)c1ccc([N+](=O)[O-])cc1` as the compound, how does the Potency read?
The Potency was inconclusive: 14.1 µM [inhibitor, single point].

How did the max response, negative = inhibition turn out when `COc1ccc(N2CCN(C(=O)C(=O)c3c[nH]c4ccccc34)CC2)cc1` was run?
Its max response, negative = inhibition is inactive: 3.93%.

`COc1ccc(CC(=O)NCc2nnc(SCC(=O)Nc3ncc(C)s3)n2C)cc1` was tested. Which Potency did it give?
The Potency was inconclusive: 39.8 µM [inhibitor, partial curve, poor fit].

How did the Potency turn out when `CCN(CC)c1ccc(C(=C2C=CC(=[N+](CC)Cc3cccc(S(=O)(=O)[O-])c3)C=C2)c2ccc(N(CC)Cc3cccc(S(=O)(=O)O)c3)cc2)cc1` was run?
Its Potency is active: 12.6 µM.

How did the Potency turn out when `CCCCCCC(O)(CCN1CCCCC1)c1ccccc1` (centres undefined) was run?
The Potency was inconclusive: 11.2 µM [inhibitor, partial curve, poor fit].

With `Cc1ccc(N(C(C)C(=O)Nc2ccc3c(c2)OCO3)S(C)(=O)=O)cc1` (centres undefined) as the compound, how does the Potency read?
Its Potency is inconclusive: 8.91 µM [inhibitor, single point].

Which Potency does the source give for `CCC(=O)OC1(C)C(=O)C=C2C=C(c3ccsc3)OC=C2C1=O` (centres undefined) here?
The Potency was inconclusive: 79.4 µM [inhibitor, partial curve, poor fit].

With `Nc1ccc2c(c1)OC1(CCCC1)O2` as the compound, how does the Potency read?
The Potency was active: 79.4 µM.

For `COc1cccc(NS(=O)(=O)c2cc(C)ccc2OC)c1`, which Potency is on record?
The Potency was inconclusive: 39.8 µM [inhibitor, single point].

How did the Potency turn out when `COc1cc(/C=C2/SC(=S)NC2=O)ccc1OS(=O)(=O)c1ccc(C)cc1` was run?
The Potency was active: 50.1 µM.

Which Potency does the source give for `COC1=CC(=O)C(C(=O)c2ccccc2)=CC1=O` here?
Its Potency is active: 31.6 µM.

How did the Potency turn out when `Cc1cc(C)c(C#N)c(SCc2[nH]nc3c2C(c2ccccc2)C(C#N)=C(N)O3)n1` (centres undefined) was run?
Its Potency is inconclusive: 89.1 µM [inhibitor, partial curve].

For `CCOC(=O)C1=Nc2ccccc2C1=[N+]=[N-]`, which Potency is on record?
The Potency was inconclusive: 79.4 µM [inhibitor, partial curve, poor fit].

Which Potency does the source give for `CC1(C)c2ccccc2N(CC(N)=O)C12C=Cc1ccccc1O2` (centres undefined) here?
Its Potency is inconclusive: 56.2 µM [inhibitor, partial curve, poor fit].

With `CCOC(=O)c1cc(-c2csc(Nc3c(C)cc(C)cc3C)n2)on1` as the compound, how does the max response, negative = inhibition read?
The max response, negative = inhibition was inactive: 10.4%.

`O=C(O)/C=C/c1cn(-c2ccccc2)nc1-c1ccc(-c2ccc([N+](=O)[O-])cc2)o1` was tested. Which max response, negative = inhibition did it give?
Its max response, negative = inhibition is inactive: -14.1%.

Which Potency does the source give for `COCc1cccc(C2=CC(=O)C[C@H](c3ccc(F)cc3)C2)c1` here?
Its Potency is inconclusive: 56.2 µM [inhibitor, partial curve, poor fit].

Which max response, negative = inhibition does the source give for `Cc1ccc(Cl)cc1N1CCN(C(=O)CCC(=O)O)CC1` here?
The max response, negative = inhibition was inactive: -4.76%.

With `COc1cccc(-c2nc(N(C)C)c3ccccc3n2)c1` as the compound, how does the Potency read?
Its Potency is active: 56.2 µM.

How did the Potency turn out when `COc1ccc(C(=O)CSc2n[nH]c(N)n2)cc1` was run?
Its Potency is inconclusive: 56.2 µM [inhibitor, partial curve, poor fit].

Which Potency does the source give for `O=C(/C=C/c1ccc(OC2CSC2)cc1)c1ccccc1` here?
The Potency was inconclusive: 50.1 µM [inhibitor, partial curve].

With `Cn1c(CNC(=O)c2ccccc2)nnc1SCC(=O)Nc1nccs1` as the compound, how does the Potency read?
The Potency was inconclusive: 25.1 µM [inhibitor, full curve, poor fit].

Which Potency does the source give for `COc1ccccc1CNc1ncncc1-c1cccnc1` here?
The Potency was inconclusive: 39.8 µM [inhibitor, partial curve].

For `Cc1ccc(S(=O)(=O)NC(C)(C)CN2CCCCC2)cc1`, which Potency is on record?
The Potency was inconclusive: 56.2 µM [inhibitor, partial curve, poor fit].

How did the Potency turn out when `CCOC(=O)/C=C/C(=O)OCC(=O)Nc1c(Cl)cccc1Cl` was run?
The Potency was inconclusive: 28.2 µM [inhibitor, single point].

`Cc1cc(=O)oc2c(C(=O)/C=C\c3cccs3)c(O)ccc12` was tested. Which Potency did it give?
Its Potency is inconclusive: 44.7 µM [inhibitor, partial curve].

`CC(C)CN1CCC(=O)N(C(CSc2ccc(Br)cc2)c2ccccc2)CC1` (centres undefined) was tested. Which Potency did it give?
The Potency was inconclusive: 89.1 µM [inhibitor, single point].

`CCCOc1ccc(N)cc1N` was tested. Which Potency did it give?
The Potency was inconclusive: 79.4 µM [inhibitor, partial curve, poor fit].

For `Cc1nc2ccc(N=NN(C)C)cc2[nH]1`, which Potency is on record?
Its Potency is active: 50.1 µM.

For `COc1ccc(O)c(C(=O)c2cc(C(=O)NCCc3ccccc3)c(=O)n(CCc3ccccc3)c2)c1`, which Potency is on record?
Its Potency is inconclusive: 100 µM [inhibitor, single point].

`O=C(Oc1ccc(C(=S)N2CCOCC2)cc1)c1cccc([N+](=O)[O-])c1` was tested. Which Potency did it give?
The Potency was inconclusive: 79.4 µM [inhibitor, partial curve, poor fit].

How did the Potency turn out when `Cc1ccccc1-c1nc(P(=O)(c2ccccc2)c2ccccc2)c(N2CCOCC2)o1` was run?
Its Potency is inconclusive: 89.1 µM [inhibitor, partial curve, poor fit].
